Measured values as given in PubChem BioAssay AID504467 (National Center for Advancing Translational Sciences (NCATS), 2011).
In all, about 330,000 compounds went through this assay and about 7,700 (2.3%) were called active. Inconclusive means that the source gave no clear call. Such entries were picked first, then a sample of the others. Calls come from the whole dose curve; as a rule, active = well fitted inhibition curve with a large enough effect; inconclusive = small, poorly fitted or top-dose-only effect, or effect the other way; inactive = flat fitted curve, though single readings scatter. A potency beside an inconclusive call is a rough fit, not a confirmed value.

Assay: qHTS screen for small molecules that inhibit ELG1-dependent DNA repair in human embryonic kidney (HEK293T) cells expressing luciferase-tagged ELG1; note: nearly all actives have a fitted effect of over 55% in size
Details: HEK293T ELG1-luciferase reporter, luminescence, 16 h, DNA damage induced by 5-fluorouridine; activity change, negative = inhibition: at 46.1 µM (top of the series)
In short: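 DMSO vehicle served as the neutral condition. Each well held 2,000 cells given 5-fluorouridine plus compound; after 16 hr at 37 °C/5% CO2, ONE-Glo was added and luciferase measured 30 min later.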
% is set by controls: 0 for no effect and ±100 for the full control effect; potency is the fitted concentration of half-maximal effect.

Structure (SMILES) | Potency | activity change, negative = inhibition
Cc1ccc(C(=O)NC(NC(=O)c2ccc(C)cc2)C(Cl)Cl)cc1 | inconclusive: 8.2 µM [activator, partial curve] | –
CC(C)(C)OC(=O)N/N=C\c1ccc(OC(=O)c2ccco2)cc1 | inconclusive: 16.4 µM [activator, partial curve] | –
Cc1cccc(-n2ncc3c2CCCC3NC(=O)Cc2c(C)noc2C)c1C (stereo not given) | inconclusive: 2.06 µM [inhibitor, partial curve] | –
CCOc1ccc(-c2csc(NNC3=NCCCCC3)n2)cc1 | inconclusive: 14.6 µM [activator, partial curve] | –
COC(=O)c1ccc(/C=N/N2C(C)CCCC2C)cc1 (stereo not given) | inconclusive: 20.6 µM [activator, partial curve] | –
O=C(Cn1cc2c(n1)CCCCC2)NC1CCCCCC1 | inconclusive: 20.6 µM [activator, partial curve] | –
O=c1[nH]c(/C(=N\O)c2ccccc2)no1 | inconclusive: 18.4 µM [inhibitor, partial curve, poor fit] | –
CC1(C)Cc2c(cnn2-c2ccc(F)cc2)C(NC(=O)c2ccco2)C1 (stereo not given) | – | inactive: 10%
CCOc1ccc2c(c1)-c1c(ssc1=S)C(C)(C)N2C(=O)c1ccco1 | inconclusive: 2.31 µM [inhibitor, single point] | –
COc1ccc(NCc2nc3ccccc3n2C)cc1 | inconclusive: 6.51 µM [activator, single point] | –
OCCN=c1cc(-c2ccccc2)oc2ccc(Cl)cc12 | inconclusive: 8.91 µM [activator, partial curve, poor fit] | –
CCOC(=O)C1CCN(C(=O)c2ccc3c(Cl)c4c(nc3c2)CCCC4)CC1 | inconclusive: 20.6 µM [activator, partial curve] | –
CSc1ccccc1NC(=O)C1CC(c2c(F)cccc2Cl)=NO1 (stereo not given) | inconclusive: 18.3 µM [activator, single point] | –
COc1ccc(N2CCN(C(=O)CCS(=O)(=O)c3ccc(OC)cc3)CC2)cc1 | inconclusive: 25.9 µM [inhibitor, single point] | –
COC(=O)c1ccc(N2NC(=O)/C(=C/c3ccc(-c4ccc(Cl)c(C(=O)O)c4)o3)C2=O)cc1 | – | inactive: -1.78%
O=C(NCc1nnc2c(C(F)(F)F)cc(Cl)cn12)C1CCCC1 | – | inactive: 1.21%
COc1ccc(-c2csc3nc(-c4ccccc4OC)oc(=O)c23)cc1 | – | inactive: -7.2%
O=C(Nc1ccc(CN2CCOCC2)cc1)c1cc2ccccn2n1 | inconclusive: 0.82 µM [activator, partial curve] | –
CSc1nc(N)nc2c1ncn2CC(=O)NCc1ccc2c(c1)OCO2 | inconclusive: 18.3 µM [inhibitor, partial curve, poor fit] | –
O=C(O)COc1ccccc1/C=N/NC(=O)c1cccc(S(=O)(=O)Nc2cccc(Cl)c2)c1 | – | inactive: 2.19%
Cc1cc(C)cc(N=c2c([N+](=O)[O-])nn(-c3ccc4c(c3)OCCO4)n2O)c1 | – | inactive: 1.32%
CCS(=O)(=O)N1CCCC(C(=O)NCCc2ccc(C)cc2)C1 (stereo not given) | – | inactive: 1.31%
Cc1nc(C(=O)NNC(=O)c2ccccc2)c(C(F)(F)F)o1 | inconclusive: 20.6 µM [inhibitor, single point] | –

Taken from above:
Under Potency, Cc1nc(C(=O)NNC(=O)c2ccccc2)c(C(F)(F)F)o1 has inconclusive: 20.6 µM [inhibitor, single point]
Under Potency, CCOc1ccc2c(c1)-c1c(ssc1=S)C(C)(C)N2C(=O)c1ccco1 has inconclusive: 2.31 µM [inhibitor, single point]

(next part)

Structure (SMILES) | Potency | activity change, negative = inhibition
N/C(=N\OC(=O)c1cccc(Cl)c1)c1ccncc1 | inconclusive: 23.1 µM [activator, partial curve, poor fit] | –
COCCNC(=O)c1cccc(OC2CCN(C(C)COc3ccccc3)CC2)c1 (stereo not given) | – | inactive: 13.4%
Cc1nc2ccc(Cl)cc2nc1C | inconclusive: 18.3 µM [activator, partial curve, poor fit] | –
Cn1c(SCc2ccccc2)nnc1-c1cnccn1 | inconclusive: 20.6 µM [activator, partial curve] | –
CCOC(=O)Nc1oc2ccccc2c(=O)c1CN1CCOCC1 | active: 10.3 µM | –
COc1ccc(C(C)(C)C)cc1NC(=O)c1ccc2ncsc2c1 | inconclusive: 20.6 µM [activator, partial curve, poor fit] | –
O=C(COc1ccccc1Br)NC1CCCC1 | inconclusive: 20.6 µM [activator, single point] | –
O=C(CSc1nnc(-c2ccc(F)cc2)o1)N1CCCC1 | inconclusive: 4.61 µM [activator, single point] | –
COc1c(O)cc2oc(-c3ccc(O)cc3)cc(=O)c2c1O | inconclusive: 5.8 µM [activator, full curve] | –
CCN1C(=O)C(=O)N(CC(=O)c2cc(C)n(C3CC3)c2C)C1=O | inconclusive: 20.6 µM [activator, partial curve] | –
CC1(c2ccc3c(c2)OCO3)NC(=O)N(CC(=O)c2ccc[nH]2)C1=O (stereo not given) | – | inactive: 0.735%
CNCCCC12CCC(c3ccccc31)c1ccccc12 | inactive | –
Cc1ccccc1CC(=O)Nc1ccc2c(c1)CCC2 | inconclusive: 29.1 µM [activator, partial curve, poor fit] | –
COc1ccc(CCNC(=S)N2CCN(S(=O)(=O)c3ccccc3F)CC2)cc1 | inconclusive: 25.9 µM [inhibitor, single point] | –
CCCN(CCC)CCCNC(=O)C1CCC(CNS(=O)(=O)c2cccc3nsnc23)CC1 (stereo not given) | inconclusive: 23.1 µM [activator, partial curve, poor fit] | –
O=C(NC1CC2CCCC(C1)N2S(=O)(=O)c1ccccc1)C1CCCCC1 (stereo not given) | – | inactive: -25.4%
c1ccc2[nH]c(Cn3nnc4ccccc43)nc2c1 | inconclusive: 14.1 µM [activator, single point] | –
COc1ccc([C@H]2CC(=O)C=C(c3cccc(Cl)c3)C2)cc1OC | inconclusive: 20.6 µM [inhibitor, partial curve, poor fit] | –
Cc1cccc(C(=O)NNC(=O)c2ccccc2O)c1 | inconclusive: 20.6 µM [activator, partial curve] | –
COc1ccc(C(=O)Nc2cc3c4c(c2)CC(=O)N4CCC3)cc1 | inconclusive: 25.9 µM [activator, single point] | –
COc1ccccc1-c1nnc(SCC(=O)Nc2ccc3[nH]c(=O)[nH]c3c2)n1N | – | inactive: 22.6%
CCOc1ccc(NC(=O)CCC(=O)NNS(=O)(=O)c2ccccc2[N+](=O)[O-])cc1 | – | inactive: 4.55%
